Here are results for three molecules from paper PMC2014788.

These are yes or no findings as the source states them, for the method shown. For some of these results: In cells and extracts the contact can be indirect. Some entries that bind do so weakly or less than the wild type. For some of these results: Tags and fused reporters may be left off the sequences shown.

Experiment [1] concerns the target T1, AtDMC1 (Arabidopsis thaliana) (UniProt Q39009).
T1 sequence (chain, radioactively labeled L-methionine incorporated): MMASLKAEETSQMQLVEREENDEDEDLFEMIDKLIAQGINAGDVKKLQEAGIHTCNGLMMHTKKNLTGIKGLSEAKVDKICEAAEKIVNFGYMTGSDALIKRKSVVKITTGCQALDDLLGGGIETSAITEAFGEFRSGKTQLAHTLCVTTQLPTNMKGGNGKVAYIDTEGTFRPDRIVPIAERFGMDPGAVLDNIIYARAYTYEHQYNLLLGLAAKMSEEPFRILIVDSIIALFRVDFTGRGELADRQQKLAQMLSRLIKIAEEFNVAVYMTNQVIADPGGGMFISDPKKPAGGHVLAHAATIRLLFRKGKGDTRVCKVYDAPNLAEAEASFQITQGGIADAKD
Kind of experiment: co-IP; proteins co-translated in vitro (TNT reticulocyte lysate) with radioactively labeled L-methionine; samples split and incubated 2 h at 4 °C with anti-c-myc (9E11) or anti-HA (12CA5) antibodies on Protein G Sepharose; NET2 buffer (150 mM NaCl, 50 mM Tris-Cl pH 7.4, 0.05% Igepal); 12% gel ….

In experiment [2] the target is T2, AtRAD51 (Arabidopsis thaliana) (UniProt P94102).
T2 sequence (chain, radioactively labeled L-methionine incorporated): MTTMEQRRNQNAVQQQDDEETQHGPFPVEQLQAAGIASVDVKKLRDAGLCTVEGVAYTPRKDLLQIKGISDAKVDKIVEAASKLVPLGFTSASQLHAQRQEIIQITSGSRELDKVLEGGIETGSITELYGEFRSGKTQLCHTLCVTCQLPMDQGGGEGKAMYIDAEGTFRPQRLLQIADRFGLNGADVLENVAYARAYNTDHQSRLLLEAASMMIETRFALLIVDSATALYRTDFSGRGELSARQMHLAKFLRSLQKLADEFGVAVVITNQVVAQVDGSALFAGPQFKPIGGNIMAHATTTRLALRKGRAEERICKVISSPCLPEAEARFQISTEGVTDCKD
The description is as above.

Experiment [3] has as its target T3, AHP2 (Arabidopsis thaliana) (UniProt Q9FX64).
T3 sequence (chain, radioactively labeled L-methionine incorporated): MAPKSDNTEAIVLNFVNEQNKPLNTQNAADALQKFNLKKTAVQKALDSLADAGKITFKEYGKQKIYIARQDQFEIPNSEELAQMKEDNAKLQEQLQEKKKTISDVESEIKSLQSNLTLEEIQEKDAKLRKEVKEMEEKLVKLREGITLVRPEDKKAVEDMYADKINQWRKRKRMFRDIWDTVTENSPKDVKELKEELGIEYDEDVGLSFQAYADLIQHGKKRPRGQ
The description is as above.

The target in experiment [4] is AtMND1 (Arabidopsis thaliana) (UniProt Q8GYD2). Described as above.
Experiment [5] concerns the target AtMND1 (yeast two-hybrid fusion) (Arabidopsis thaliana) (UniProt Q8GYD2). The experiment is described as follows: two-hybrid; yeast two-hybrid assay, unpublished data.

B1: AHP2 (protein, UniProt Q9FX64 1-226)
chain: MAPKSDNTEAIVLNFVNEQNKPLNTQNAADALQKFNLKKTAVQKALDSLADAGKITFKEYGKQKIYIARQDQFEIPNSEELAQMKEDNAKLQEQLQEKKKTISDVESEIKSLQSNLTLEEIQEKDAKLRKEVKEMEEKLVKLREGITLVRPEDKKAVEDMYADKINQWRKRKRMFRDIWDTVTENSPKDVKELKEELGIEYDEDVGLSFQAYADLIQHGKKRPRGQ
modifications: radioactively labeled L-methionine incorporated
For the molecule B1, the binding result in experiment [1] and in experiment [2] was “binds” throughout.

B2: AtMND1 (protein, UniProt Q8GYD2 1-230)
chain: MSKKRGLSLEEKREKMLQIFYESQDFFLLKELEKMGPKKGVISQSVKDVIQSLVDDDLVAKDKIGISIYFWSLPSCAGNQLRSVRQKLESDLQGSNKRLAELVDQCEALKKGREESEERTEALTQLKDIEKKHKDLKNEMVQFADNDPATLEAKRNAIEVAHQSANRWTDNIFTLRQWCSNNFPQAKEQLEHLYTEAGITEDFDYIELSSFPLSSSHEADTAKQLVQDEA
modifications: radioactively labeled L-methionine incorporated
For the molecule B2, the binding entry in experiment [3], in experiment [1], in experiment [2] and in experiment [4] was “binds” throughout.

B3: AtMND1 (yeast two-hybrid fusion) (protein, UniProt Q8GYD2 1-230)
chain: MSKKRGLSLEEKREKMLQIFYESQDFFLLKELEKMGPKKGVISQSVKDVIQSLVDDDLVAKDKIGISIYFWSLPSCAGNQLRSVRQKLESDLQGSNKRLAELVDQCEALKKGREESEERTEALTQLKDIEKKHKDLKNEMVQFADNDPATLEAKRNAIEVAHQSANRWTDNIFTLRQWCSNNFPQAKEQLEHLYTEAGITEDFDYIELSSFPLSSSHEADTAKQLVQDEA
Take B3: in experiment [5], the binding result is “binds”.
